Data on 26 molecules can be found in the supplement of paper PMC8256030.

Several values for one entry are separate records, joined by “and”; a condition that tells them apart may be missing. Identical values can stand only once. This is one part of the list. Single values are uncertain here, since repeats match poorly.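 HEK293T cells were given each compound shortly before transfection with a reporter in which red mCherry is followed by the SARS-CoV-2 frameshift element and then GFP in the −1 frame, so GFP appears only after frameshifting.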

In this assay the test system is HEK293T. Nature of the assay: percent viability (nuclei count) relative to control; higher = more viable cells. The following applies: 10 µM; 24 h.
Turning to `CCCCCCCCCC(=O)N[C@H]1[C@H](Oc2c3cc4cc2Oc2ccc(cc2Cl)[C@@H](O[C@@H]2O[C@H](CO)[C@@H](O)[C@H](O)[C@H]2NC(C)=O)[C@@H]2NC(=O)[C@H](NC(=O)[C@@H]4NC(=O)[C@H]4NC(=O)[C@@H](Cc5ccc(c(Cl)c5)O3)NC(=O)[C@H](N)c3ccc(O)c(c3)Oc3cc(O)cc4c3)c3ccc(O)c(c3)-c3c(OC4O[C@H](CO)[C@@H](O)[C@H](O)[C@@H]4O)cc(O)cc3[C@@H](C(=O)O)NC2=O)O[C@H](CO)[C@@H](O)[C@@H]1O` (stereo partly specified), the percent viability was 156%.

Turning to `O=C(O)Cn1cc(I)c(=O)c(I)c1` [diodone], the percent viability was found to be 110%.

For `CCCCCCc1ccc(O)cc1O.Nc1c2ccccc2nc2ccccc12` [acrisorcin], the percent viability was 24.8%.

Turning to `CC[C@H]1OC(=O)[C@H](C)[C@@H](O[C@H]2C[C@@](C)(OC)[C@@H](O)[C@H](C)O2)[C@H](C)[C@@H](O[C@@H]2O[C@H](C)C[C@H](N(C)C)[C@H]2O)[C@](C)(O)C[C@@H](C)/C(=N\OCOCCOC)[C@H](C)[C@@H](O)[C@]1(C)O` [roxithromycin], the percent viability was found to be 181%.

For the molecule `NC(=O)c1[nH]nc([C@@H]2O[C@H](CO)[C@@H](O)[C@H]2O)c1O` [pirazofurin], the percent viability stood at 120%.

As for `CCCCOc1ccc(CC(=O)NO)cc1` [bufexamac], the percent viability stood at 126%.

For the molecule `Oc1ncnc2[nH]ncc12` [Allopurinol], the percent viability was determined as 162%.

Consider `CCOC(=O)OC(C)OC1=C(C(=O)Nc2ccccn2)N(C)S(=O)(=O)c2ccccc21` (stereo unspecified) [ampiroxicam], for which the percent viability amounted to 268%.

With `CC[C@H](C)[C@H](NC(=O)[C@H](Cc1ccccc1)NC(=O)[C@H](C)NC(=O)[C@H](CC(=O)O)NC(=O)[C@H](CCCCN)NC(=O)[C@H](CO)NC(=O)[C@@H]1CCCN1C(=O)[C@@H]1CCC(=O)N1)C(=O)NCC(=O)N[C@@H](CC(C)C)C(=O)N[C@@H](CCSC)C(N)=O` [eledoisin], the percent viability was 260%.

With `CCc1cccc(CC)c1NC(=O)CN(CC(=O)O)CC(=O)O` [etifenin], the percent viability amounted to 144%.

For the molecule `OC(C1=NCCN1)(c1ccc(Cl)cc1)c1ccccn1` (stereo unspecified) [dazadrol], the percent viability amounted to 143%.

As to `COC(=O)N/N=C/c1c[n+]([O-])c2ccccc2[n+]1[O-]` [Carbadox], the percent viability amounted to 69.6%.

In the case of `Cc1nccc2[nH]c(=O)ccc12` [medorinone], the percent viability is 50.3%.

Turning to `Cc1ccccc1OCC(O)CNCCOc1ccc(C(N)=O)cc1` (stereo unspecified) [tolamolol], the percent viability was 118%.

In the case of `Nc1nc2c(ncn2COCCO)c(=O)[nH]1`, the percent viability was found to be 286%.

For the molecule `CC(=O)Oc1cc(C(C)C)c(OCCN(C)C)cc1C` [moxisylyte], the percent viability stood at 233%.

Consider `Cc1nccn1CC1CCc2c(c3ccccc3n2C)C1=O` (stereo unspecified), for which the percent viability was determined as 168%.

Take `CC(C)COC(=O)c1ccc(N)cc1` [isobutamben]: the percent viability was determined as 87.6%.

For the molecule `Nc1cc(Cl)c(N=C2NCCN2)c(Cl)c1` [apraclonidine], the percent viability stood at 269%.

As to `O=c1ccn([C@@H]2O[C@H](COP(=O)(O)OP(=O)(O)OP(=O)(O)OP(=O)(O)OC[C@H]3O[C@@H](n4ccc(=O)[nH]c4=O)[C@H](O)[C@@H]3O)[C@@H](O)[C@H]2O)c(=O)[nH]1` [diquafosol], the percent viability was 240%.

For the molecule `CCOc1ccc2ccccc2c1C(=O)N[C@@H]1C(=O)N2[C@@H]1SC(C)(C)[C@@H]2C(=O)O` [nafcillin], the percent viability was determined as 116%.

Take `CC(=O)OCC(CCn1cnc2cnc(N)nc21)COC(C)=O` [famciclovir]: the percent viability was 357% and 217%.

Take `COc1ccc2c(c1OC)C(=O)O[C@@H]2[C@H]1c2c(cc3c(c2OC)OCO3)CCN1C` [noscapine]: the percent viability was found to be 156%.

Regarding `CCOCCOC(=O)/C=C/c1ccc(OC)cc1` [cinoxate], the percent viability was determined as 275%.

Turning to `Nc1nc(CC(=O)Nc2ccc(CCNC[C@H](O)c3ccccc3)cc2)cs1` [Mirabegron], the percent viability was 256%.

Consider `CC(=O)OCC(=O)[C@@]1(O)CC[C@H]2[C@@H]3CCC4=CC(=O)CC[C@]4(C)[C@H]3[C@@H](O)C[C@@]21C`, for which the percent viability turned out to be 182%.
